Measurements reported in PubChem BioAssay AID686938 (Drosophila RNAi Screening Center, 2013)

- Purpose: 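Knock-downs reducing store-operated calcium influx in Drosophila cells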 (primary screen)
- Cell system: Drosophila S2R+ cells
- Knock-down reagent: long dsRNA against Drosophila genes, about 0.25 µg dsRNA per well, roughly 10,000 cells
- Time to read-out: 5 days of knock-down before the calcium assay
- Conditions: thapsigargin (SERCA pump blocker) to empty calcium stores; entry signal taken 4 min after adding it
- Detection: 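Duplicate raw fluo-4 intensities per well from a plate reader, at rest and four minutes after thapsigargin emptied calcium stores; entry-to-rest ratio filled for only some wells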
- Direction: calcium entry signal: higher = stronger calcium signal after store depletion; entry to resting ratio: higher = more calcium entry relative to resting level; resting calcium signal: higher = higher resting calcium signal
- Active means: 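Called when the plate z-score of the entry-to-rest ratio, mean of duplicates, falls below −3; wells with low overall dye signal (Fmax z below −2) or more than five off-targets excluded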
- Meaning of the calls: active = strongly reduced calcium entry; inactive = no strong reduction
The screen tested about 23,000 reagents; shown is an unselected part of those that have a named target and a result. Over the whole deposit, 75 (0.33%) are marked active. 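Raw plate signals without normalisation; calls rest on plate z-scores that were not deposited; ratio present for only 364 wells.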 A number with no mark means an inactive call. The numbers tell different reagents against one gene apart. Names joined by + are all predicted targets of the reagent. Reagent sequences are not shown. The record does not give: the dose of the treatment.

gene knocked down,reagent no.,"calcium entry signal, replicate 1 (fluorescence units)","calcium entry signal, replicate 2 (fluorescence units)",entry to resting ratio,"resting calcium signal, replicate 1 (fluorescence units)","resting calcium signal, replicate 2 (fluorescence units)"
CG11333,1,3.55e7,4.01e7,2.2,1.59e7,1.61e7
KaiR1D,1,3.51e7,4.70e7,,6.90e7,2.17e7
CG33454,1,4.54e7,3.61e7,,2.48e7,1.81e7
Jheh1,1,2.40e7,2.20e7,,1.16e7,1.07e7
CG34301,1,4.03e7,5.10e7,,1.91e7,2.68e7
Srg1,1,3.50e7,8.12e7,,1.75e7,2.91e7
CG31752,1,3.62e7,3.84e7,,2.12e7,1.80e7
His4:CG33883 + His4:CG33889 + His4:CG33899 + 20 more,1,1.80e7,1.66e7,,1.28e7,1.02e7
ClC-c,1,4.50e7,4.82e7,,2.18e7,3.43e7
CG10669,1,3.24e7,4.87e7,,1.71e7,2.26e7
CG5645,1,3.60e7,3.67e7,,2.71e7,1.48e7
Sec8,1,3.88e7,4.16e7,,1.80e7,1.90e7
CG41099,1,5.40e7,4.28e7,,2.60e7,1.85e7
CG41099,2,5.70e7,4.83e7,,2.56e7,1.97e7

A portion of the results above:
gene knocked down,reagent no.,"calcium entry signal, replicate 1 (fluorescence units)","calcium entry signal, replicate 2 (fluorescence units)",entry to resting ratio,"resting calcium signal, replicate 1 (fluorescence units)","resting calcium signal, replicate 2 (fluorescence units)"
CG10669,1,3.24e7,4.87e7,,1.71e7,2.26e7
CG5645,1,3.60e7,3.67e7,,2.71e7,1.48e7

The results go on.
gene knocked down,reagent no.,"calcium entry signal, replicate 1 (fluorescence units)","calcium entry signal, replicate 2 (fluorescence units)",entry to resting ratio,"resting calcium signal, replicate 1 (fluorescence units)","resting calcium signal, replicate 2 (fluorescence units)"
CG13996,1,4.35e7,3.72e7,,1.98e7,1.67e7
CG30416,1,3.70e7,3.90e7,,2.03e7,1.71e7
Kua,1,4.30e7,4.68e7,,2.23e7,2.06e7
Osi18,1,5.12e7,4.81e7,,2.35e7,2.08e7
CG7611,1,2.41e7,3.01e7,,1.09e7,1.56e7
CG33695 + cana,1,2.56e7,2.45e7,,1.45e7,1.23e7
CG33695 + cana,2,3.48e7,5.07e7,,1.74e7,2.09e7
CG14285,1,3.81e7,3.24e7,,4.13e7,1.40e7
Surf6,1,3.26e7,2.43e7,,1.67e7,1.27e7
CG1161,1,1.41e7,1.93e7,,8.79e6,1.24e7
